According to paper PMC8994751:
Results are given in words; binding and its absence hold for the method and conditions named. Binding seen in cells or lysates may run through a third protein. Binding can be weak; no strength is given. Sequences can lack the tags named with a protein.

Target: T1, Flag-USP26 full length (UniProt Q9BXU7)
T1 sequence: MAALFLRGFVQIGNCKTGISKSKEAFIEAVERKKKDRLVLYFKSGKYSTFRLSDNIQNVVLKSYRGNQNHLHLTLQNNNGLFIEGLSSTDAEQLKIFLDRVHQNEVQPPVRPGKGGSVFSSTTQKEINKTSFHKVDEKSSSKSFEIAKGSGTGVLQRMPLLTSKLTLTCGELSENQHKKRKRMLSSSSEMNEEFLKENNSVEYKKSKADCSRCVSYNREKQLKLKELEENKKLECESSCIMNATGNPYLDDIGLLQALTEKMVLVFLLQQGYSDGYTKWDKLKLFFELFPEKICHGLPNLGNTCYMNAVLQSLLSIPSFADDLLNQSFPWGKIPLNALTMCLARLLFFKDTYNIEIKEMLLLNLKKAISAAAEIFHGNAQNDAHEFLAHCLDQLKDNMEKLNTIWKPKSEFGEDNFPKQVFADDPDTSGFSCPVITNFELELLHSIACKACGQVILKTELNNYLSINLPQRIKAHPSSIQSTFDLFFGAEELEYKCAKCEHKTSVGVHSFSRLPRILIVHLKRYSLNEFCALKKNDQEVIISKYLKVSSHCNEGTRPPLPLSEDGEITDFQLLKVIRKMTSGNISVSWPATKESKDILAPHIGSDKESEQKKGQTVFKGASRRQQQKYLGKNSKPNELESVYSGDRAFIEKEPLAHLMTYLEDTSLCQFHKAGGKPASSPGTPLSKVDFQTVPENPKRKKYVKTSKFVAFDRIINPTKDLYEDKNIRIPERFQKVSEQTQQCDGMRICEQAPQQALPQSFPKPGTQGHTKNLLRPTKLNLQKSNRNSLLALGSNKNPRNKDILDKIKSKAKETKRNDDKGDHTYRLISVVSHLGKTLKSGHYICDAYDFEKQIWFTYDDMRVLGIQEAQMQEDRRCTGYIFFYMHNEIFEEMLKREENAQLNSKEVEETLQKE
Assay: co-IP; HEK293 cells transfected with Flag-USP26 and Myc-TAZ full length or mutants; NP-40 lysis buffer; IP with Flag antibody, blot with Myc antibody

binding: binds
Substance: Myc-TAZ C-terminal region (deletion mutant) (domain or fragment)
